# “And” between values parts separate entries of the source, which are not always exact repeats. Equal entries are not always repeated. The inconclusive results got no clear call from the source; some entries with a clear call stand among them for comparison. For part of these data: Potencies beside an inconclusive call are fits to weak or partial responses and may not hold up. The source made the active and inactive calls. Rule for the calls: active = hit-call score of the fitted dose curve at least 0.9, where 1 is the maximum; inconclusive = response in the unintended direction; inactive = score below 0.9.
# Sequences of proteins named here, by UniProt entry; tags and fusion partners are left off. A change or cut given only in a name is not applied to a line headed by its entry.
# UniProt P10275: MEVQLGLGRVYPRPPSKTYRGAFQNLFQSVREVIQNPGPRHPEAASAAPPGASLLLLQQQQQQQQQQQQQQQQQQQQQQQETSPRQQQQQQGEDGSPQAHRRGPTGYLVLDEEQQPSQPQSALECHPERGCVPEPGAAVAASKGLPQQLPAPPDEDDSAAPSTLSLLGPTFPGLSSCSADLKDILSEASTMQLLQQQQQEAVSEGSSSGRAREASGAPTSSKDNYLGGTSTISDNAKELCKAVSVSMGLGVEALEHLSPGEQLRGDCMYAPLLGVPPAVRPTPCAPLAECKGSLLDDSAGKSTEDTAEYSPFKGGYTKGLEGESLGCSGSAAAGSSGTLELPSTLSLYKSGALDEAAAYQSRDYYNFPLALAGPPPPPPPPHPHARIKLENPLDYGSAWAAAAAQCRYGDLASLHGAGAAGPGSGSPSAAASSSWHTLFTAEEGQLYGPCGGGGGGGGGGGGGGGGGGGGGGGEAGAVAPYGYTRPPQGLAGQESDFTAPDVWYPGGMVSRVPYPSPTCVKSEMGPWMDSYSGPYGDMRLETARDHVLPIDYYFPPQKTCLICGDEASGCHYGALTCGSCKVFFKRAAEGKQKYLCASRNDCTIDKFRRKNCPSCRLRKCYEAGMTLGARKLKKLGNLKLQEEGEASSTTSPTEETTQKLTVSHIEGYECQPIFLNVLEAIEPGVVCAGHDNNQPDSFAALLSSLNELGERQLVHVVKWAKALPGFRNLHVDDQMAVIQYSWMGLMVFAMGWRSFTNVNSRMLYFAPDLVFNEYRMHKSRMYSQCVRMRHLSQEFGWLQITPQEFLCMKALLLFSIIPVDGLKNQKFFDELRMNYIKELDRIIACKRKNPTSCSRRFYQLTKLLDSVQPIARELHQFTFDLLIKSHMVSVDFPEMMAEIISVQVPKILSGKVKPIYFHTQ
# UniProt O75469: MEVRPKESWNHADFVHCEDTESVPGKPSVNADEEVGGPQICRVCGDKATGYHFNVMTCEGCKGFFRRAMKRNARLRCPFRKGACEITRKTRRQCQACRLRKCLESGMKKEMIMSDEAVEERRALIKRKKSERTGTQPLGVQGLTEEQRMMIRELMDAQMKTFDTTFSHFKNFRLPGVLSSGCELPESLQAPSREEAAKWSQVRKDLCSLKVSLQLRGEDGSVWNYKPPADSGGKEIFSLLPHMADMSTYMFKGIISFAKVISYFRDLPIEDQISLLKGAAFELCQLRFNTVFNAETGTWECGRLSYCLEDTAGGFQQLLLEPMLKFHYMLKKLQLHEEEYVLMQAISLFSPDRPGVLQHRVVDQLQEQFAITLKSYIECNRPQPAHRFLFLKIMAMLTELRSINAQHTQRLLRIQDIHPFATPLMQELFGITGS
# UniProt P33261, whole entry, looked up: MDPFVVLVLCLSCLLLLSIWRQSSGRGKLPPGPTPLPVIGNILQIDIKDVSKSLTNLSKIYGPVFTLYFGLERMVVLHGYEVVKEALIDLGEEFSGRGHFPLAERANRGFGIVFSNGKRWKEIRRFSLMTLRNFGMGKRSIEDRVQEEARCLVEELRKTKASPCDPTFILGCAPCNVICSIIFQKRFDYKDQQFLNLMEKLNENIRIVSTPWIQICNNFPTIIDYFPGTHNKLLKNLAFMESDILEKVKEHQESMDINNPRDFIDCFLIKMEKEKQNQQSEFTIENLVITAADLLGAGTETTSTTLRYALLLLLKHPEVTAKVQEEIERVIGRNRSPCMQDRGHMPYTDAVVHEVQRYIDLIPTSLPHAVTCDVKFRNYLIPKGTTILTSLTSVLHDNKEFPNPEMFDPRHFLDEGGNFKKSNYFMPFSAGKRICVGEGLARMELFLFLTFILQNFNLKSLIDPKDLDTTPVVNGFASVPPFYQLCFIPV
# UniProt P11712, whole entry, looked up: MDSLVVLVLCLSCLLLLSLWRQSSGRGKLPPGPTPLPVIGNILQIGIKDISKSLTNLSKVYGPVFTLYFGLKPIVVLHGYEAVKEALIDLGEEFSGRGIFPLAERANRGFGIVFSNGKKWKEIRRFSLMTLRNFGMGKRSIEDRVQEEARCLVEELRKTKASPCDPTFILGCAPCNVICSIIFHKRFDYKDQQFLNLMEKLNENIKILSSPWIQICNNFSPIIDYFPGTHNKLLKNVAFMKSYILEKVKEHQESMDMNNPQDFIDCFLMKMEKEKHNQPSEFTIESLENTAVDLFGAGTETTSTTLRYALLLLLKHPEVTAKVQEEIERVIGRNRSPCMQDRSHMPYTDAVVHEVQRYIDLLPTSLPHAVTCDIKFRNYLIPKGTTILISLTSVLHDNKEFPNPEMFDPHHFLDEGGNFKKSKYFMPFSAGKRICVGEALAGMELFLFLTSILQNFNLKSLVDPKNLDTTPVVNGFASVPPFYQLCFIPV
# UniProt Q9UNQ0: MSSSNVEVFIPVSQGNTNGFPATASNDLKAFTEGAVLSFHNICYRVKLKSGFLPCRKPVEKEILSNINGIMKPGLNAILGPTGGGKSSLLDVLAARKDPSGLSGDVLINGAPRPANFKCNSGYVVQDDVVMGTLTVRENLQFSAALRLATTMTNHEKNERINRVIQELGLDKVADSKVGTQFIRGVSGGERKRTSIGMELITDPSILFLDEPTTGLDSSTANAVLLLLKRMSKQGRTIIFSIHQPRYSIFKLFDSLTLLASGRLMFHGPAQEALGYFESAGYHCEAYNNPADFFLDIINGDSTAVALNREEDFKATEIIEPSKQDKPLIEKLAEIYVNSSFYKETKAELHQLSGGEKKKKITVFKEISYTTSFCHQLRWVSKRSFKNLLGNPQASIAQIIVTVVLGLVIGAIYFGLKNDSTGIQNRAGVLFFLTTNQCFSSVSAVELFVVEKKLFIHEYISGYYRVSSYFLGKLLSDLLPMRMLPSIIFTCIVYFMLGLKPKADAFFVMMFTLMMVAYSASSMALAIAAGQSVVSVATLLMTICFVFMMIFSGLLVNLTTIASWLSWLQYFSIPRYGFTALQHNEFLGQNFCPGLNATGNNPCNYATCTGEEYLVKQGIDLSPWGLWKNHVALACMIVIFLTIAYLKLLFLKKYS
# UniProt P04406: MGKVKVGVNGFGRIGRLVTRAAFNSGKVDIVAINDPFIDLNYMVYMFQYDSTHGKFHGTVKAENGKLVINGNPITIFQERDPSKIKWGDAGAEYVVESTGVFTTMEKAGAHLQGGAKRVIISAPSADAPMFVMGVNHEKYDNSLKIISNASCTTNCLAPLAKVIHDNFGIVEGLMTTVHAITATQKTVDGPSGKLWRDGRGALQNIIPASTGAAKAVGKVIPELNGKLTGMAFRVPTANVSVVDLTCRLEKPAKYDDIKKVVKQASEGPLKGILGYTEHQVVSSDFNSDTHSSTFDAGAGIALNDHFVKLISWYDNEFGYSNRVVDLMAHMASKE
# UniProt P49884, whole entry, looked up: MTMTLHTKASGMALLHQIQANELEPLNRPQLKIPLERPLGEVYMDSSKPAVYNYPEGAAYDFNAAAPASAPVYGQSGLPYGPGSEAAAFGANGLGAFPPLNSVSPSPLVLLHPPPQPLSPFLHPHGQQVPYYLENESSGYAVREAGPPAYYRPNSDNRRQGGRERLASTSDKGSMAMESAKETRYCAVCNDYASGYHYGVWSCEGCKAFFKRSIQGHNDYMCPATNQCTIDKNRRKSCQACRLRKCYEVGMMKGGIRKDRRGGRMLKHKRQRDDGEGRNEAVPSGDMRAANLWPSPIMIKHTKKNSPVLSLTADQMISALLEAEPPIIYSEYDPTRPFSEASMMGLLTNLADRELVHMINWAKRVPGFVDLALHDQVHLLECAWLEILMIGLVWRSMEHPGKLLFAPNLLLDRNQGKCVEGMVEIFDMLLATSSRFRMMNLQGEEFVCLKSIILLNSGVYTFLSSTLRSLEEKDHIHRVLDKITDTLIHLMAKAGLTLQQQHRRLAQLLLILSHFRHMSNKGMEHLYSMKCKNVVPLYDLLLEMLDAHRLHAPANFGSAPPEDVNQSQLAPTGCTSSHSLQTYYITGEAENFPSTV
# UniProt Q01717: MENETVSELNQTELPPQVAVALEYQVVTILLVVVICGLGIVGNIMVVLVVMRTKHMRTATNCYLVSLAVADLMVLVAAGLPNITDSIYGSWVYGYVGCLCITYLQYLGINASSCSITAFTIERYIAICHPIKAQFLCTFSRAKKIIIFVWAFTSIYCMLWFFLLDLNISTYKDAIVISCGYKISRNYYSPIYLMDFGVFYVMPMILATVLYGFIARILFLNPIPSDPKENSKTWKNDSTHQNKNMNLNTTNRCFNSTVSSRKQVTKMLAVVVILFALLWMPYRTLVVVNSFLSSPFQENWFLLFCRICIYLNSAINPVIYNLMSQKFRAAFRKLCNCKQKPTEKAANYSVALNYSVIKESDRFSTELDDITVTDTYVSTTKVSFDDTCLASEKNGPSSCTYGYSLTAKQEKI
# Columns and labels:
# [1] = biological target: Androgen receptor (Homo sapiens) (UniProt P10275); experiment: ATG_AR_TRANS: Attagene TRANS-FACTORIAL HepG2 Assay for human Androgen Receptor (AR) (AID 2282973); details: HepG2 Attagene TRANS-FACTORIAL AR reporter transcription
# In short: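 HepG2 cells transiently transfected with multiplexed GAL4-UAS reporter units and chimeric NR-Gal4 fusion; 24 h compound exposure. Reporter mRNA measured by RT-PCR, 6-FAM labelling, HpaI digestion and capillary electrophoresis; gain-of-signal fitted relative to DMSO baseline.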
# [2] = biological target: Nuclear receptor subfamily 1 group I member 2 (Homo sapiens) (UniProt O75469); experiment: ATG_PXR_TRANS: Attagene TRANS-FACTORIAL HepG2 Assay for human Pregnane X Receptor (PXR) (AID 2283008)
# In short: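 HepG2 transfected (FuGene 6) with GAL4-UAS reporter units + PXR-Gal4 chimera; dosed 24 h. Total RNA → oligo(dT) RT → PCR → 6-FAM primer extension → HpaI cut → CE. Gain-of-signal vs DMSO.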
# [3] = ATG_XTT_Cytotoxicity: Cytotoxicity Assessment in the Attagene TRANS-FACTORIAL HepG2 Assay (AID 2283584);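 for AC50: cells exposed to compound for 24 h before reading; active means loss of viability signal versus DMSO baseline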
# In short: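 HepG2 human liver cells, transiently transfected with multiple GAL4-UAS reporter units, were dosed and read at 24 h by XTT as cell number. Loss of signal was fitted relative to DMSO negative control baseline.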
# [4] = read-out: organic anion transporter (SLCO1B1), SLCO1B1 (gene 10599); experiment: CLD_SLCO1B1_6hr: CellzDirect (CLD) Gene Expression Assay for organic anion transporter (SLCO1B1) at 6 hours (AID 2283668);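 note: active means mRNA induction above DMSO baseline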
# In short: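 SLCO1B1 mRNA induction measured 6 h after dosing by quantitative nuclease protection with chemiluminescent read-out, in human primary hepatocyte cultures given chemicals at several concentrations (vehicle 0.2% DMSO). Increase over DMSO baseline fitted; morphology-based cytotoxicity annotated yes/no.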
# [5] = CLD_ACTIN_24hr: CellzDirect (CLD) Gene Expression Assay for Baseline Control (Actin) at 24 hours (AID 2283670)
# In short: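 This 24 h qNPA (S1 nuclease protection, chemiluminescence) actin transcript readout in cultured human liver primary cells serves as baseline control. Signal is fitted upward relative to 0.2% DMSO; chemicals tested at multiple concentrations across two donor preparations.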
# [6] = CLD_ACTIN_6hr: CellzDirect (CLD) Gene Expression Assay for Baseline Control (Actin) at 6 hours (AID 2283676)
# In short: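 Baseline actin transcript level measured by qNPA (S1 nuclease protection, chemiluminescence) in human hepatocyte cultures 6 h after chemical exposure; 0.2% DMSO vehicle as reference, cytotoxicity noted from morphology.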
# [7] = read-out: Cytochrome P450 2C19 (Homo sapiens) (UniProt P33261); experiment: CLD_CYP2C19_6hr: CellzDirect (CLD) Gene Expression Assay for xenobiotic metabolism (CYP2C19) at 6 hours (AID 2283678)
# In short: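 CYP2C19 transcript induction was quantified by quantitative nuclease protection assay with chemiluminescent read-out, 6 h after dosing. Cells were primary human hepatocytes from two donor preparations, given fresh dosing solutions daily in 0.2% DMSO vehicle. Activity was relative to DMSO.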
# [8] = read-out: Cytochrome P450 2C19 (Homo sapiens) (UniProt P33261); experiment: CLD_CYP2C19_24hr: CellzDirect (CLD) Gene Expression Assay for xenobiotic metabolism (CYP2C19) at 24 hours (AID 2283687);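 for outcome: activity means mRNA induction above DMSO vehicle baseline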
# In short: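 CYP2C19 mRNA was quantified by qNPA chemiluminescence after 24 h of daily dosing of cultured human primary hepatocytes from two donors; vehicle was 0.2% DMSO, and increases over DMSO baseline were fitted.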
# [9] = read-out: Cytochrome P450 2C9 (Homo sapiens) (UniProt P11712); experiment: CLD_CYP2C9_24hr: CellzDirect (CLD) Gene Expression Assay for xenobiotic metabolism (CYP2C9) at 24 hours (AID 2283688);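 for AC50: potency for induction meaning a rise in CYP2C9 mRNA over DMSO vehicle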
# In short: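 Induction of CYP2C9 mRNA was quantified by quantitative nuclease protection assay (chemiluminescence), gain of signal versus 0.2% DMSO vehicle, 24 h after dosing. Human primary hepatocytes (two donors) received fresh chemical daily at multiple concentrations; morphology-based cytotoxicity flagged yes/no.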
# [10] = read-out: ABC Transporter (ABCB11), ABCB11 (gene 8647); experiment: CLD_ABCB11_48hr: CellzDirect (CLD) Gene Expression Assay for ABC Transporter (ABCB11) at 48 hours (AID 2283697)
# In short: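 Induction of ABCB11 mRNA relative to 0.2% DMSO, measured at 48 h by qNPA chemiluminescence. Cultured human hepatocytes (two donors) received fresh dosing solutions at several concentrations on two consecutive days.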
# [11] = read-out: Broad substrate specificity ATP-binding cassette transporter ABCG2 (Homo sapiens) (UniProt Q9UNQ0); experiment: CLD_ABCG2_48hr: CellzDirect (CLD) Gene Expression Assay for ABC Transporter (ABCG2) at 48 hours (AID 2283704);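 for AC50: potency for induction of ABCG2 mRNA above the DMSO baseline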
# In short: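 ABCG2 transcript measured at 48 h by quantitative nuclease protection (chemiluminescent) and fitted for increase relative to 0.2% DMSO. Hepatocyte cultures from separate donors got fresh compound daily over two days; morphology annotated cytotoxicity.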
# [12] = read-out: Glyceraldehyde-3-phosphate dehydrogenase (Homo sapiens) (UniProt P04406); experiment: CLD_GAPDH_48hr: CellzDirect (CLD) Gene Expression Assay for Baseline Control (Glyceraldehyde 3-phosphate dehydrogenase) at 48 hours (AID 2283706);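 for outcome: active means higher GAPDH mRNA than DMSO vehicle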
# In short: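 GAPDH baseline-control readout: qNPA chemiluminescent mRNA quantitation in human liver primary cells 48 h after daily dosing on two consecutive days, vehicle 0.2% DMSO; gain of signal fitted against DMSO, cytotoxicity flagged by phase-contrast morphology.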
# [13] = read-out: organic anion transporter (SLCO1B1), SLCO1B1 (gene 10599); experiment: CLD_SLCO1B1_48hr: CellzDirect (CLD) Gene Expression Assay for organic anion transporter (SLCO1B1) at 48 hours (AID 2283707)
# In short: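 SLCO1B1 transcript quantified by qNPA with chemiluminescent readout after 48 h of once-daily chemical exposure. Cultured human primary hepatocytes came from two donors, with 0.2% DMSO vehicle; positive-direction fitting against DMSO, cytotoxicity flagged by morphology.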
# [14] = read-out: alkyl and aryl transferase (GSTA2), GSTA2 (gene 2939); experiment: CLD_GSTA2_48hr: CellzDirect (CLD) Gene Expression Assay for alkyl and aryl transferase (GSTA2) at 48 hours (AID 2283708);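 note: active means mRNA induction above DMSO vehicle baseline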
# In short: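 GSTA2 mRNA quantified by qNPA chemiluminescence in human primary hepatocyte lysates after 48 h of daily fresh chemical dosing. Increases fitted against 0.2% DMSO vehicle baseline; cytotoxicity from morphology annotated yes/no.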
# [15] = biological target: bovine Estrogen Receptor (ER), ESR1 (gene 407238) (UniProt P49884); experiment: NVS_NR_bER: NovaScreen (NVS) Nuclear Receptor Binding Assay for bovine Estrogen Receptor (ER) (AID 2283345);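 note: actives lower the bound radioligand count which means they displace the ER ligand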
# In short: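 Cell-free radioligand binding with bovine uterine membrane extracts, read 18 hours after dosing by scintillation counting. Loss of signal versus DMSO baseline indicates displacement. Primary screen run in duplicate at 25 uM, actives followed in concentration series.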
# [16] = CCTE_Deisenroth_AIME_384WELL_CTox_Inactive: Cytotoxicity Assessment (CTOX) in CCTE's 384-well Estrogen Receptor Transactivation Assay without AIME metabolic competence (metabolism negative), Deisenroth Lab (AID 2284039);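 note: cell viability via live-cell protease substrate cleaved to fluorescent probe; cells exposed 24 h to medium preincubated 2 h with alginate-water beads without S9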
# In short: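 VM7Luc4E2 cells, metabolism-negative arm: test chemicals (0.002–200 uM, 10 points) pre-incubated 2 h with alginate-water microspheres, then medium transferred to cells for 24 h. Viability read as protease-substrate cleavage to fluorescent probe; loss-of-signal, bidirectional fitting.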
# [17] = ATG_Hpa5_TRANS: Attagene TRANS-FACTORIAL HepG2 Assay for human GAL4-Hpa5 Hepatocyte Transcription Factor Basal Promoter (AID 2282975); details: HepG2 Attagene GAL4-Hpa5 transcription reporter;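 for outcome: hits are increases in reporter mRNA over DMSO baseline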
# In short: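 Gain-of-signal versus DMSO is fitted for reporter mRNA quantified by RT-PCR and capillary electrophoresis after 24 h exposure. This endpoint is an internal background marker in transiently transfected HepG2 cells carrying GAL4-UAS reporter units.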
# [18] = read-out: Cytochrome P450 2C19 (Homo sapiens) (UniProt P33261); experiment: CLD_CYP2C19_48hr: CellzDirect (CLD) Gene Expression Assay for xenobiotic metabolism (CYP2C19) at 48 hours (AID 2283700);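 for outcome: fitted upward so actives raise CYP2C19 mRNA above the 0.2% DMSO vehicle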
# In short: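 CYP2C19 mRNA induction read by chemiluminescent quantitative nuclease protection assay after 48 h, with fresh compound added daily for two days to cultured human liver hepatocytes. Activity fitted upward against 0.2% DMSO vehicle.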
# [19] = CCTE_Deisenroth_AIME_384WELL_CTox_Active: Cytotoxicity Assessment (CTOX) in CCTE's 384-well Estrogen Receptor Transactivation Assay with AIME metabolic competence (metabolism positive), Deisenroth Lab (AID 2284037);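 note: chemicals first conditioned 2 h by alginate-bound induced rat liver S9 before cells; activity means signal loss indicating cell death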
# In short: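 VM7Luc4E2 breast cells received medium pre-incubated 2 h with chemical over alginate microspheres holding induced male Sprague Dawley rat liver S9; viability read 24 h later by protease-substrate fluorescence. Loss of signal, bidirectional fit, 0.002–200 uM.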
# [20] = biological target: rat Thyrotropin Releasing Hormone Receptor (TRH), Trhr (gene 25570) (UniProt Q01717); experiment: NVS_GPCR_rTRH: NovaScreen (NVS) G Protein-Coupled Receptor Assay for rat Thyrotropin Releasing Hormone Receptor (TRH) (AID 2283329);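 note: hit means lower bound tracer signal versus DMSO baseline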
# In short: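 Rat forebrain membranes; radioligand displacement at TRH receptor by filter-based scintillation counting, read 4 h after dosing. Duplicate single-point screen at 25 uM, actives rerun in concentration series; loss of signal relative to DMSO.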
structure (smiles),measurement,setting,value
ClC(Cl)c1ccccc1,outcome,[3],inactive
CCC(C)Nc1c([N+](=O)[O-])cc(C(C)(C)C)cc1[N+](=O)[O-] (stereo not given),AC50,[4],inconclusive: 20 µM
same,AC50,[5],inconclusive: 36.4 µM
same,AC50,[6],inconclusive: 0.000595 µM
same,outcome,[7],inactive
same,AC50,[8],inconclusive: 20 µM
same,AC50,[9],inconclusive: 0.107 µM
same,AC50,[10],inconclusive: 379 nM
same,outcome,[11],inactive
same,AC50,[12],inconclusive: 3.77 µM
same,AC50,[13],inconclusive: 20 µM
same,AC50,[14],active: 4.11 µM
CCOCCOC(C)=O,outcome,[15],inactive
same,outcome,[16],inactive
Nc1c(Oc2ccccc2)cc(O)c2c1C(=O)c1ccccc1C2=O,AC50,[1],inconclusive: 50 µM
COCCOCCO,AC50,[2],inconclusive: 27.1 µM
same,AC50,[19],inconclusive: 100 µM
O=C(Nc1ccc(Br)cc1)c1cc(Br)cc(Br)c1O,AC50,[15],inconclusive: 12.2 µM
OC(c1ccc(Cl)cc1)(c1cncnc1)c1ccccc1Cl (stereo not given),outcome,[17],inactive
same,outcome,[20],inactive
same,outcome,[15],inactive
same,outcome,[4],inactive
same,AC50,[7],inconclusive: 3970 nM
same,AC50,[8],inconclusive: 20 µM
same,AC50,[9],inconclusive: 20 µM
same,AC50,[10],inconclusive: 5160 nM
same,AC50,[18],inconclusive: 20 µM
same,AC50,[11],active: 33.4 µM
same,AC50,[12],inconclusive: 2.83 µM
same,AC50,[13],inconclusive: 10.5 µM
same,AC50,[14],active: 15.8 µM
COC(=O)c1ccccc1S(=O)(=O)NC(=O)N(C)c1nc(C)nc(OC)n1,AC50,[17],inconclusive: 9.92 µM
same,outcome,[15],inactive
same,outcome,[4],inactive
same,AC50,[6],inconclusive: 3.97 µM
same,outcome,[10],inactive
same,AC50,[18],inconclusive: 20 µM
same,AC50,[11],inconclusive: 0.293 µM
same,outcome,[12],inactive
same,AC50,[13],inconclusive: 0.0004 µM
Nc1ncc([N+](=O)[O-])s1,AC50,[15],inconclusive: 0.0798 µM
same,outcome,[3],inactive
CC(C#N)CCC#N (stereo not given),outcome,[2],inactive
same,AC50,[20],inconclusive: 8.7 µM
OC(Cc1ccccc1Cl)(Cn1[nH]cnc1=S)C1(Cl)CC1 (stereo not given),outcome,[1],inactive
COP(=O)(OC)O/C(C)=C/C(=O)N(C)C,outcome,[17],inactive
same,outcome,[2],inactive
same,outcome,[5],inactive
same,outcome,[7],inactive
same,outcome,[8],inactive
same,outcome,[9],inactive
same,outcome,[10],inactive
same,outcome,[18],inactive
same,outcome,[12],inactive
same,outcome,[13],inactive
CN(C)CCN(C)C,AC50,[3],inconclusive: 99.5 µM
CON=C(C(=O)OC)c1ccccc1CON=C(C)c1cccc(C(F)(F)F)c1,outcome,[20],inactive
same,AC50,[6],inconclusive: 20 µM
same,outcome,[8],inactive
same,AC50,[18],inconclusive: 20 µM
same,AC50,[12],inconclusive: 20 µM
same,AC50,[13],inconclusive: 20 µM
same,AC50,[19],active: 19.8 µM
Clc1ccc(COC(Cn2ccnc2)c2ccc(Cl)cc2Cl)cc1 (stereo not given),AC50,[15],active: 0.7 µM

# Pulled one by one from the list above:
structure (smiles),measurement,setting,value
OC(c1ccc(Cl)cc1)(c1cncnc1)c1ccccc1Cl (stereo not given),AC50,[8],inconclusive: 20 µM
COP(=O)(OC)O/C(C)=C/C(=O)N(C)C,outcome,[12],inactive

# From PubChem BioAssay (EPA / NIEHS)
